In article PMC11842806, “Molecular basis of foreign DNA recognition by BREX anti-phage immunity system” (Nature Communications, 2025):

Key:
Assay in all cases: EMSA
[1] = biological target: T1, BrxX Y511A (Escherichia coli HS) (UniProt P0DUF9); conditions: with and without 0.5 mM SAM, binding disrupted; EMSA: 20 nM Cy5-DNA, 0.5x TBE pH 8.0, 35 mM NaCl, 5% glycerol, +/-0.5 mM SAM or SAH, 30 min, room temperature; recombinant protein; residues 1-1205; protein details: N-His6; label: 5'-Cy5 on strand 1
T1 sequence (looked up): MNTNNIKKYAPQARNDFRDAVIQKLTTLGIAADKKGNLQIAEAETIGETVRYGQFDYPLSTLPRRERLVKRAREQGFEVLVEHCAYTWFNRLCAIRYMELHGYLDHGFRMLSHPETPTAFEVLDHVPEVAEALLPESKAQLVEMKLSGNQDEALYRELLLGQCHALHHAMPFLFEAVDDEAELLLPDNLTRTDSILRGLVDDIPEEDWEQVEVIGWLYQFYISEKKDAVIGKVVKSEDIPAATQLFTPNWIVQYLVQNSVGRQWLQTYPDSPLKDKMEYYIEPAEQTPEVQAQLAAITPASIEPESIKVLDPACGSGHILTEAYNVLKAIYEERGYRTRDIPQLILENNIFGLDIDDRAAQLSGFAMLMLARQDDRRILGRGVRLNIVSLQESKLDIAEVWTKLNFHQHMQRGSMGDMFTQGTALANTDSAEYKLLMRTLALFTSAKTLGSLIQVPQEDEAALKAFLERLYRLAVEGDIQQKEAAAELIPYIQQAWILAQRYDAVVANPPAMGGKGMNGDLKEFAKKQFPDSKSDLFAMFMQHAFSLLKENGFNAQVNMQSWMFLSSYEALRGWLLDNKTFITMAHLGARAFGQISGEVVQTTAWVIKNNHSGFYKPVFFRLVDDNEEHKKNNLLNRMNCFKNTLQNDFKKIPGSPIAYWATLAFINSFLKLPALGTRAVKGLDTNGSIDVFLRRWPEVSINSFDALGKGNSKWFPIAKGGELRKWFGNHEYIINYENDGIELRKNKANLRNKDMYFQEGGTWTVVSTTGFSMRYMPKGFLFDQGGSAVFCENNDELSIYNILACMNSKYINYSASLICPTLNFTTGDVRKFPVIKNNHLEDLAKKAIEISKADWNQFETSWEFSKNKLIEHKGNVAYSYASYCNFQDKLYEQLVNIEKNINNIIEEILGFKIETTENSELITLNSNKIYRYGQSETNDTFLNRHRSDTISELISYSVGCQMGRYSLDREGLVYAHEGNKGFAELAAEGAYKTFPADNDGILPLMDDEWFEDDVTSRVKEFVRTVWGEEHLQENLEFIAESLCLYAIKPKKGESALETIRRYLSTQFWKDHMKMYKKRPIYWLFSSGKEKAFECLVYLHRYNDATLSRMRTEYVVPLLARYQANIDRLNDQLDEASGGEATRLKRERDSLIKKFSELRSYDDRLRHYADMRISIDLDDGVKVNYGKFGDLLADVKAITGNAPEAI

[2] = biological target: T2, BrxX K515E/K522E/K526E/K533E (MTD variant) (Escherichia coli HS) (UniProt P0DUF9); conditions: site specificity lost; EMSA: 20 nM Cy5-DNA, 0.5x TBE pH 8.0, 35 mM NaCl, 5% glycerol, +/-0.5 mM SAM or SAH, 30 min, room temperature; recombinant protein; residues 1-1205; protein details: N-His6; label: 5'-Cy5 on strand 1
T2 sequence (looked up): T1 sequence (looked up) with A511Y, K515E, K522E, K526E, K533E

[3] = biological target: T3, BrxX (PglX) (Escherichia coli HS) (UniProt P0DUF9); conditions: strict specificity for A at position 4; EMSA: 20 nM Cy5-DNA, 0.5x TBE pH 8.0, 35 mM NaCl, 5% glycerol, +/-0.5 mM SAM or SAH, 30 min, room temperature; recombinant protein; residues 1-1205; protein details: N-His6; label: 5'-Cy5 on strand 1
T3 sequence (looked up): T1 sequence (looked up) with A511Y

Sequence: AGTCAGTAGTGAGGTCAGGAATGAGTCAGTCTCACTGTCAGGA (double strand) [43 bp scrambled]
- binding result [1]: binds more weakly

Sequence: AGTCAGTGGTAAGGTCAGGAATGAGTCAGTTGGCAAGTCAGGA (double strand) [43 bp, 1 BREX site]
- binding result [1]: binds more weakly

Sequence: TCAGTAGTCAAGTCAGTGGTAAGGTCAGGACAGGAGTCAG (double strand) [40 bp BREX]
- binding result [2]: binds more weakly

Sequence: TCAGTAGTCAAGTCAGTGGTCAGGTCAGGACAGGAGTCAG (double strand) [40 bp BREX 4C]
- binding result [3]: binds more weakly

Sequence: TCAGTAGTCAAGTCAGTGGTGAGGTCAGGACAGGAGTCAG (double strand) [40 bp BREX 4G]
- binding result [3]: binds more weakly

Sequence: TCAGTAGTCAAGTCAGTGGTTAGGTCAGGACAGGAGTCAG (double strand) [40 bp BREX 4T]
- binding result [3]: binds more weakly

Sequence: TCAGTAGTCAAGTCAGTTAGGGAGTCAGGACAGGAGTCAG (double strand) [40 bp scrambled]
- binding result [2]: binds more weakly

Where a chain is given by its changes, count along the chain named. Weaker means in comparison with the reference protein, sequence or condition of that experiment. Protein sequences can lack the tags named with them. For some of these results: For at least one entry, the source does not settle the construct or the ends of the probe. For some of these results: At least one verdict rests on a figure or table, not on a statement of the authors.
